The source of these data is patent US6797511.

Sequences of proteins named here, by UniProt entry; tags and fusion partners are left off. A change or cut given only in a name is not applied to a line headed by its entry.
UniProt P04386: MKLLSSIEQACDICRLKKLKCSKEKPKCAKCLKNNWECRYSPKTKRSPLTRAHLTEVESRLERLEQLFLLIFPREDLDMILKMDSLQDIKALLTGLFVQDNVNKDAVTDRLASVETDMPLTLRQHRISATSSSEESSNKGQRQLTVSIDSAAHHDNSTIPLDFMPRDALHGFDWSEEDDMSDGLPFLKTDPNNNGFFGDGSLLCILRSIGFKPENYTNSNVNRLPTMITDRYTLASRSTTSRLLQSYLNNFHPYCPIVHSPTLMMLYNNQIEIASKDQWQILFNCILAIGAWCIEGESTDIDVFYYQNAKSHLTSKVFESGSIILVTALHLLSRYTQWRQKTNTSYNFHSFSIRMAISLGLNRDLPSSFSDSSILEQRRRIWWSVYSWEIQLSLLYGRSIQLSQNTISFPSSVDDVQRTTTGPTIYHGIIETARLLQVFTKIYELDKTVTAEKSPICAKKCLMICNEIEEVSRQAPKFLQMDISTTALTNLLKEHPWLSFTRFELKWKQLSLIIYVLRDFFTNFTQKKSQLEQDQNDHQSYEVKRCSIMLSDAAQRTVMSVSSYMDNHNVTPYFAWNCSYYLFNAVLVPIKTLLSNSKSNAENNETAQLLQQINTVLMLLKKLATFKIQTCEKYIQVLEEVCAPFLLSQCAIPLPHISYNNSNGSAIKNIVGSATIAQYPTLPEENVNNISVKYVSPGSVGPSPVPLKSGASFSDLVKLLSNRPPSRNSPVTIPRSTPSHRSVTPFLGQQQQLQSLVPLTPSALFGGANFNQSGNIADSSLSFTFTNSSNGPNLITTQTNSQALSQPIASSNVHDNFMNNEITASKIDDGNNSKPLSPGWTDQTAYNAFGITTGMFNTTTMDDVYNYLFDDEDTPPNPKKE

The assay concerns the target Loop construct: presenilin 1 loop region (amino acids 260-400) in vector pAS2-1 (UniProt P04386). Briefly: yeast two-hybrid, Loop region bait against human brain cDNA library.

Results are given in words; binding and its absence hold for the method and conditions named. Some results given as binding are weak or reduced against the parent protein; the word gives no strength.

B1: ALARM captured protein as expressed from the human brain Matchmaker cDNA library in the yeast two-hybrid assay (protein, not shown: large carriers)
chain: MRSLSQSQGVPLPPAHTGTYRTSTAPSSPGVDSVPLQRTGSQHGPQNAAAATFQRASYAAGPASNYADPYRQLQYCPSVESPYSKSGPALPPEGTLARSPSIDSIQKDPREFGWRDPELPEVIQMLQHQFPSVQSNAAAYLQHLCFGDNKIKAEIRRQGGIQLLVDLLDHRMTEVHRSACGALRNLVYGKANDDNKIALKNCGGIPALVRLLRKTTDLEIRELVTGVLWNLSSCDALKMPIIQDALAVLTNAVIIPHSGWENSPLQDDRKIQLHSSQVLRNATGCLRNVSSPGEEARRRMRECDGLTDALLYVIQSALGSSEIDSKTVENCVCILRNLSYRLAAETSQGQHMGTDELDGLLCGEANGKDAESSGCWGKKKKKKKSQDQWDGVGPLPDCAEPPKGIQMLWHPSIVKPYLTLLSECSNPDTLEGAAGALQNLAAGSWKWSVYIRAAVRKEKGRPILVELLRIDNDRVACAVATALRNMALDVRNKELIGKYAMRDLVHRLPGGNNSNNTASKAMSDDTVTAVCCTLHEVITKNMENAKALRDAGGIEKLVGISKSKGDKHSPKVVKAASQVLNSMWQYRDLRSLYKKDGWSQYHFVASSSTIERDRQRPYSSSRTPSISPVRVSPNNRSASAPASPREMISLKERKTDYECTGSNATYHGAKGEHTSRKDAMTAQNTGISTLYRNSTRNYDESFFEDQVHHRPPASEYTMHLGLKSTGNYVDFYSAARPYSELNYETSHYPASPDSWV
For the molecule B1, the binding result was “binds”.
